Experimental data as given in PubChem BioAssay AID540276 (National Center for Advancing Translational Sciences (NCATS), 2011).
Several values for one entry are separate records, joined by “and”; a condition that tells them apart may be missing. Equal values may be shown once. Among all 300,000 compounds or so, about 5,400 (1.8%) were called active. Inconclusive means that the source gave no clear call. Such entries were picked first, then a sample of the others. The call rests on the fitted dose curve; tested in HEK293 cells. A potency beside an inconclusive call is a rough fit, not a confirmed value.

Assay: qHTS for inhibitors of binding or entry into cells for Marburg Virus
Settings: Marburg virus pseudotyped entry inhibition, cell reporter; series mostly up to 37.8 µM
Potency means the concentration at half of the fitted maximal effect.

Row | SMILES | Potency
1 | CCOC(=O)C1(C)C=C(Nc2ccc(OC)cc2)C(=O)N1c1ccccc1 (configuration not stated) | inactive
2 | CCOC(=O)C(=CNc1ccc(C(F)(F)F)cc1)C(=O)OCC | inactive
3 | O=C(CCN1C(=O)c2cccc3cccc(c23)C1=O)Nc1ccon1 | inconclusive: 35.5 µM [inhibitor, partial curve, poor fit]
4 | COc1ccc(OCCCC(=O)Nc2nc(-c3ccccn3)cs2)cc1 | inconclusive: 10 µM [inhibitor, partial curve, poor fit]
5 | CC(O)COc1ccc(/C(=N/O)c2ccccc2)cc1 (configuration not stated) | inconclusive: 23.1 µM [activator, single point]
6 | CCOc1ccc(N2C(=O)CC(NCCNc3ccc([N+](=O)[O-])cn3)C2=O)cc1 (configuration not stated) | inconclusive: 3.98 µM [inhibitor, single point]
7 | Cc1oc(/C=N/NC(=O)CC2(C)OCCO2)cc1Br | inconclusive: 35.5 µM [activator, single point]
8 | Fc1ccc(-c2nc3c(-c4ccc(Cl)cc4)cnn3cc2CCN2CCOCC2)cc1 | inconclusive: 17.8 µM [inhibitor, single point]
9 | O=C(/C=C/c1ccc(Br)cc1)Nc1ccc(S(=O)(=O)Nc2ncccn2)cc1 | inactive
10 | CC(C)OP(=O)(OC(C)C)C(Nc1ccccc1)c1cccc2c1OCO2 (configuration not stated) | inconclusive: 6.31 µM [inhibitor, single point]
11 | COC(=O)c1ccc(NCc2cc(O)ccc2O)cc1O | inconclusive: 22.4 µM [inhibitor, partial curve, poor fit]
12 | O[C@H]1C[C@H](c2ccccc2)N(Cc2cccs2)C[C@H]1n1cc(-c2ccc(F)cc2)nn1 | inconclusive: 22.3 µM [inhibitor, partial curve, poor fit]
13 | N#CCCNc1ccc(OCCC#N)cc1 | inconclusive: 35.5 µM [activator, single point]
14 | COc1ccc2[nH]c(=O)c(CN(c3ccc(C)c(C)c3)S(C)(=O)=O)cc2c1 | inconclusive: 7.94 µM [inhibitor, partial curve, poor fit]
15 | CC(=O)N1CCN(S(=O)(=O)c2c(F)cc(F)c(Cl)c2F)CC1 | inconclusive: 8.91 µM [inhibitor, partial curve, poor fit]
16 | O=c1c2ccccc2nc(-c2ccco2)n1/N=C/c1ccccc1O | inactive
17 | O=[N+]([O-])c1ccc2nnn(O)c2c1 | inactive
18 | C/C(=N\NC(=O)C(C)Oc1ccc([N+](=O)[O-])cc1)c1ccccn1 (configuration not stated) | inconclusive: 10.3 µM [inhibitor, partial curve, poor fit]
19 | COc1ccc(-c2nnc(SCCC(=O)O)n2-c2ccccc2)cc1 | inactive
20 | O=C(c1cccc(C(F)(F)F)c1)N1CCN(CCc2ccccc2)CC1 | inconclusive: 17.8 µM [activator, single point]
21 | CCc1nnc(NS(=O)(=O)c2ccc(NC(=S)NC(=O)/C=C/c3ccccc3)cc2)s1 | inconclusive: 1.26 µM [activator, single point]
22 | O=C(O)c1ccc2oc(SCC(=O)N3CCCCC3)nc2c1 | inactive
23 | CCN(CC)c1ccc(C2Nc3cccc4cccc(c34)N2)c(O)c1 | inactive and inconclusive: 23.1 µM [activator, single point]
24 | O=C1Nc2ncccc2OC1CCCl (configuration not stated) | inconclusive: 6.31 µM [inhibitor, single point]

Retrieved by structure from the list above:
Row | SMILES | Potency
1 | CCOC(=O)C1(C)C=C(Nc2ccc(OC)cc2)C(=O)N1c1ccccc1 (configuration not stated) | inactive
21 | CCc1nnc(NS(=O)(=O)c2ccc(NC(=S)NC(=O)/C=C/c3ccccc3)cc2)s1 | inconclusive: 1.26 µM [activator, single point]

Later entries.

Row | SMILES | Potency
25 | COCCN1C=C2C(=O)C(C)(OC(=O)c3cccs3)C(=O)C=C2C=C1CCCC(=O)OC (configuration not stated) | inconclusive: 0.0067 µM [inhibitor, full curve, poor fit]
26 | Clc1ccc(C2=NNC(=NCc3ccc4c(c3)OCO4)SC2)cc1 | active: 12.6 µM
27 | CCOc1cccc(CN2CCCC(C(=O)Nc3cccc(-n4cccn4)c3)C2)c1 (configuration not stated) | inconclusive: 14.1 µM [inhibitor, single point]
28 | CCc1c(Cl)nc(N)nc1Nc1ccccc1Cl | inconclusive: 35.5 µM [inhibitor, single point]
29 | Cc1ccc(-n2nc(C)c3c(C)cc(=O)[nH]c32)cc1 | inactive
30 | CCN1CCN(CCNC(=O)c2ccc(CS(=O)(=O)c3c(Cl)cccc3Cl)o2)CC1 | inactive
31 | NNC(=O)COc1cccc2cccnc12 | inactive
32 | Cn1c(C(=O)N2CCc3ccccc3C2)cc2c(=O)n3ccccc3nc21 | inconclusive: 22.4 µM [inhibitor, single point]
33 | CC(C)Oc1ccc(S(=O)(=O)N2CCOCC2)cc1NC(=O)Cc1cccs1 | inactive
34 | COc1ccc(C2=NOC(C(=O)NCc3cccnc3)C2)cc1OC (configuration not stated) | inconclusive: 35.5 µM [inhibitor, partial curve, poor fit]
35 | CCOc1ccccc1-c1nc(-c2cc3ccc(C)cc3[nH]c2=O)no1 | inactive
36 | Cc1c(Cl)c(-c2n[nH]c(=S)n2-c2ccccc2)nn1C | inconclusive: 1.26 µM [inhibitor, single point]
37 | Cc1ccc(NC(=O)c2ccccc2F)c(NC(=O)c2ccccc2F)c1 | inconclusive: 7.08 µM [activator, partial curve]
38 | COc1ccc(NC(=O)C2C3C=CC4(CN(Cc5cccnc5)C(=O)C24)O3)c(OC)c1 (configuration not stated) | inconclusive: 11.2 µM [inhibitor, partial curve, poor fit]
39 | O=C(Nc1ncn[nH]1)c1ccccc1Br | inconclusive: 14.1 µM [activator, single point]
40 | CN(/N=C/c1ccc2c(c1)OCO2)c1ccccc1 | inconclusive: 0.891 µM [activator, full curve, poor fit]
41 | CC(C)Oc1ccc(C(=O)Nc2ccc(N3CCCCC3)cc2)cc1 | inconclusive: 0.251 µM [inhibitor, full curve, poor fit]
42 | CC(=O)c1c(C)[nH]c(C(=O)Nc2ccc(Cl)c(S(=O)(=O)N3CCOCC3)c2)c1C | inconclusive: 35.5 µM [inhibitor, single point]
43 | CN(C)Cc1ccccc1Sc1cccc2ccccc12 | active: 20.6 µM
44 | CCN(CC)S(=O)(=O)c1cc(NC(=O)C(C)Nc2ccccc2N2CCOCC2)ccc1C (configuration not stated) | inconclusive: 7.08 µM [inhibitor, partial curve, poor fit]
45 | Cc1ccc(NC(=S)NCCN(C2CCCCC2)C2CCCC2)cc1C | active: 9.2 µM
46 | FC(F)(F)c1ccc(C2NCCc3sccc32)cc1 (configuration not stated) | inconclusive: 31.6 µM [activator, single point]
47 | O=S1(=O)c2cccc(Cl)c2OC[C@H](c2ccccc2)N1Cc1ccc(Cl)cc1 | inconclusive: 0.995 µM [inhibitor, full curve, poor fit]
48 | COc1ccc(C)cc1NC(=O)c1cc2c(s1)CCC2 | inconclusive: 6.31 µM [activator, single point]

Molecules shown so far that have a carbonyl joined to an NH by a bond outside any ring:
Row | SMILES | Potency
3 | O=C(CCN1C(=O)c2cccc3cccc(c23)C1=O)Nc1ccon1 | inconclusive: 35.5 µM [inhibitor, partial curve, poor fit]
4 | COc1ccc(OCCCC(=O)Nc2nc(-c3ccccn3)cs2)cc1 | inconclusive: 10 µM [inhibitor, partial curve, poor fit]
7 | Cc1oc(/C=N/NC(=O)CC2(C)OCCO2)cc1Br | inconclusive: 35.5 µM [activator, single point]
9 | O=C(/C=C/c1ccc(Br)cc1)Nc1ccc(S(=O)(=O)Nc2ncccn2)cc1 | inactive
18 | C/C(=N\NC(=O)C(C)Oc1ccc([N+](=O)[O-])cc1)c1ccccn1 (configuration not stated) | inconclusive: 10.3 µM [inhibitor, partial curve, poor fit]
21 | CCc1nnc(NS(=O)(=O)c2ccc(NC(=S)NC(=O)/C=C/c3ccccc3)cc2)s1 | inconclusive: 1.26 µM [activator, single point]
27 | CCOc1cccc(CN2CCCC(C(=O)Nc3cccc(-n4cccn4)c3)C2)c1 (configuration not stated) | inconclusive: 14.1 µM [inhibitor, single point]
30 | CCN1CCN(CCNC(=O)c2ccc(CS(=O)(=O)c3c(Cl)cccc3Cl)o2)CC1 | inactive
31 | NNC(=O)COc1cccc2cccnc12 | inactive
33 | CC(C)Oc1ccc(S(=O)(=O)N2CCOCC2)cc1NC(=O)Cc1cccs1 | inactive
34 | COc1ccc(C2=NOC(C(=O)NCc3cccnc3)C2)cc1OC (configuration not stated) | inconclusive: 35.5 µM [inhibitor, partial curve, poor fit]
37 | Cc1ccc(NC(=O)c2ccccc2F)c(NC(=O)c2ccccc2F)c1 | inconclusive: 7.08 µM [activator, partial curve]
38 | COc1ccc(NC(=O)C2C3C=CC4(CN(Cc5cccnc5)C(=O)C24)O3)c(OC)c1 (configuration not stated) | inconclusive: 11.2 µM [inhibitor, partial curve, poor fit]
39 | O=C(Nc1ncn[nH]1)c1ccccc1Br | inconclusive: 14.1 µM [activator, single point]
41 | CC(C)Oc1ccc(C(=O)Nc2ccc(N3CCCCC3)cc2)cc1 | inconclusive: 0.251 µM [inhibitor, full curve, poor fit]
42 | CC(=O)c1c(C)[nH]c(C(=O)Nc2ccc(Cl)c(S(=O)(=O)N3CCOCC3)c2)c1C | inconclusive: 35.5 µM [inhibitor, single point]
44 | CCN(CC)S(=O)(=O)c1cc(NC(=O)C(C)Nc2ccccc2N2CCOCC2)ccc1C (configuration not stated) | inconclusive: 7.08 µM [inhibitor, partial curve, poor fit]
48 | COc1ccc(C)cc1NC(=O)c1cc2c(s1)CCC2 | inconclusive: 6.31 µM [activator, single point]

(list continues)

Row | SMILES | Potency
49 | Cc1cc(Cl)c2oc(C(=O)N(C)Cc3cc(C)[nH]n3)c(C)c2c1 | inconclusive: 7.08 µM [inhibitor, partial curve, poor fit]
50 | CCOC(=O)C1=C(N)Oc2ccc3ccccc3c2C1c1ccc(O)c(OC)c1 (configuration not stated) | inconclusive: 35.5 µM [inhibitor, single point]
51 | COc1ccc(CNC(=O)c2cc(-c3cccs3)nc3ccccc23)c(OC)c1 | inactive
52 | O=C(O)CCc1ccc(-c2ccc(Br)cc2)o1 | inactive
53 | Cn1cccc1C(=O)OCc1ccc(F)cc1 | inactive
54 | CCOc1ccccc1NC(=O)CN(c1ccc(OC)cc1)S(=O)(=O)c1c(C)noc1C | inconclusive: 4.61 µM [inhibitor, full curve]
55 | O=C(Nc1ccccn1)c1cc2ccccc2o1 | inconclusive: 2.06 µM [inhibitor, full curve, poor fit]
56 | Cc1cccc(C(=O)Nc2c(-c3ccc(F)cc3)nc3ccccn23)c1 | inconclusive: 35.5 µM [inhibitor, partial curve, poor fit]
57 | Cc1cc(C)n(-c2nc3cc(Cl)c(Cl)cc3nc2Nc2ccc(F)cc2C)n1 | inactive
58 | COC(=O)CN1C(=O)Nc2ccc(Br)cc2C1c1ccccc1 (configuration not stated) | inactive
59 | CC1(C)Cc2c(cnn2-c2ccccc2)C(NC(=O)c2ccoc2)C1 (configuration not stated) | inactive
60 | O=C(CCN1CCc2ccccc2C1)Nc1cccc(F)c1 | inactive
61 | CC(NC(=O)OCc1ccccc1)C(=O)Oc1cc2oc(=O)cc(-c3ccccc3)c2cc1Cl (configuration not stated) | inactive
62 | Cc1ccc(CN2CCN(/N=C/c3ccccc3)CC2)cc1 | inactive
63 | Cc1cccc(NC(=O)CSCC(=O)Nc2cc(Cl)ccc2N2CCOCC2)c1 | inconclusive: 14.1 µM [inhibitor, single point]
64 | COc1cc(-c2cc(C(=O)Nc3c(Cl)cc(Cl)cc3Cl)c3ccccc3n2)cc(OC)c1OC | inconclusive: 12.6 µM [inhibitor, partial curve, poor fit]
65 | O=C(c1ccc(Cl)cc1)N1CCCCC1CCN1CCOCC1 (configuration not stated) | inactive
66 | CN1C/C(=C\c2ccc(N3CCOCC3)cc2)C(=O)/C(=C/c2ccc(N3CCOCC3)cc2)C1 | inconclusive: 4.47 µM [inhibitor, partial curve, poor fit]
67 | O=C(C1CCN(S(=O)(=O)c2ccccc2)CC1)N1CCOCC1 | inactive
68 | Cc1ccnc(NC(=O)c2ccc(S(=O)(=O)NCc3ccco3)cc2)c1 | inconclusive: 35.5 µM [inhibitor, single point]
69 | O=C(c1ccc(OC2CCN(C/C=C/c3ccc(F)cc3)CC2)cc1)N1CCCC1 | inconclusive: 35.5 µM [inhibitor, single point]
70 | CC(=O)Nc1nonc1-c1nnc(SCc2ccccc2C)n1C | inactive
71 | Cn1cc(C=C2C(=O)NC(=O)NC2=O)c2ccccc21 | inactive
72 | COc1ccc(CNC(=O)c2ccc3c(c2)N(Cc2ccccc2F)C(=O)c2ccccc2S3=O)cc1 (configuration not stated) | inconclusive: 31.6 µM [inhibitor, single point]
